The list is a part of this screen's results and no random one: it gathers tests that were run many times, whatever their T/C, doses with no T/C, and many T/C values between a quarter and a half above the control. Other doses and runs of a compound stand elsewhere. T/C: endpoint of the treated group in % of that of the vehicle group. Some doses have a count of surviving animals in place of a T/C: the source files T/C as zero there, which appears to mark a toxic dose or a test without result, not a measured value. Some survivor counts are full or nearly so, which does not show that the dose was tolerated: the source hardly ever lists a survival T/C far under the control, and the zero likely stands for such cases as well. Counts of survivors are from the toxicity check (mostly the fifth day) where no day follows; animals may have died later. Schedules are NCI's codes, read here as Q, the interval in days (D) or hours (H), X, the number of doses. Some entries hold several experiments; their values stand side by side, smallest first. Where survival is the endpoint, the PubChem record calls one and a half times the control and up active, and a quarter to a half above the control has no call in these data; cut-offs in other NCI protocols can differ. Some T/C values are followed by the survivors on the day toxicity was checked, most often the fifth; without a count, all were alive then.
Test system: P388 leukemia ip, CD2F1 mice, survival T/C
Test: NCI In Vivo Anticancer Drug Screen. Data for tumor model P388 Leukemia (intraperitoneal) in CD2F1 (CDF1) mice
Conditions: T/C endpoint: median survival time, higher T/C = longer survival
[1] = dose: 28.4 mg/kg/injection, schedule: Q04DX003 (ip), vehicle: saline with Tween-80
[2] = dose: 200.0 mg/kg/injection, schedule: Q01DX005 (ip), vehicle: Klucel (hydroxypropylcellulose) (HPC)
[3] = dose: 200.0 mg/kg/injection, schedule: Q01DX009 (ip), vehicle: saline with Tween-80
[4] = dose: 50.0 mg/kg/injection, schedule: Q01DX009 (ip), vehicle: saline with Tween-80
[5] = dose: 50.0 mg/kg/injection, schedule: Q01DX009 (ip), vehicle: Klucel (hydroxypropylcellulose) (HPC)
[6] = dose: 100.0 mg/kg/injection, schedule: Q01DX009 (ip), vehicle: Klucel (hydroxypropylcellulose) (HPC)
[7] = dose: 200.0 mg/kg/injection, schedule: Q01DX009 (ip), vehicle: Klucel (hydroxypropylcellulose) (HPC)

For `CC(C)CC(NC(=O)C(N)Cc1ccc(N(CCCl)CCCl)cc1)C(=O)O` (stereo unspecified), the T/C (dose: 2.5 mg/kg/injection, schedule: Q04DX003 (ip), vehicle: saline with Tween-80) was 144 % of control, the T/C (dose: 8.4 mg/kg/injection, schedule: Q04DX003 (ip), vehicle: saline with Tween-80) was 130 % of control and the T/C (dose: 12.6 mg/kg/injection, schedule: Q04DX003 (ip), vehicle: saline with Tween-80) was 138 % of control. For the same compound, the T/C (dose: 18.9 mg/kg/injection, schedule: Q04DX003 (ip), vehicle: saline with Tween-80) was 140 % of control, the T/C [1] was 149 % of control and the survivor count [1] was 10 of 10. For the same compound, the survivor count (dose: 32.0 mg/kg/injection, schedule: Q04DX003 (ip), vehicle: saline with Tween-80) was 5 of 10, the survivor count (dose: 42.6 mg/kg/injection, schedule: Q04DX003 (ip), vehicle: saline with Tween-80) was 8 of 10 and the survivor count (dose: 64.0 mg/kg/injection, schedule: Q04DX003 (ip), vehicle: saline with Tween-80) was 5 of 10 and 7 of 10. The survivor count (dose: 128.0 mg/kg/injection, schedule: Q04DX003 (ip), vehicle: saline with Tween-80) was 0 of 10 and the survivor count (dose: 256.0 mg/kg/injection, schedule: Q04DX003 (ip), vehicle: saline with Tween-80) was 0 of 10 and 5 of 10.

In the case of `CCN(C(=O)CNCC(C)C)c1ccc(C)c(Cl)c1`, the survivor count (dose: 200.0 mg/kg/injection, schedule: Q01DX005 (ip), vehicle: saline) is reported as 0 of 5.

In the case of `S=C=NP1(N=C=S)=NP(N=C=S)(N=C=S)=NP(N=C=S)(N=C=S)=N1` (stereo unspecified), the survivor count [2] is reported as 5 of 5.

For `CC(C)(C)c1ccc(S(=O)(=O)C[CH2][Sn]([CH3])([CH3])[CH3])cc1`, the survivor count (dose: 25.0 mg/kg/injection, schedule: Q01DX009 (ip), vehicle: saline) was 1 of 6, the survivor count (dose: 50.0 mg/kg/injection, schedule: Q01DX009 (ip), vehicle: suspension in saline) was 0 of 6 and the survivor count (dose: 100.0 mg/kg/injection, schedule: Q01DX009 (ip), vehicle: suspension in saline) was 0 of 6. For the same compound, the survivor count (dose: 200.0 mg/kg/injection, schedule: Q01DX009 (ip), vehicle: suspension in saline) was 0 of 6.

In the case of `O=C(O)CCC(=O)OC(C1CO1)C(OC(=O)CCC(=O)O)C1CO1` (stereo unspecified), the T/C (dose: 10.0 mg/kg/injection, schedule: Q01DX009 (ip), vehicle: saline) is reported as 126 % of control, the T/C (dose: 40.0 mg/kg/injection, schedule: Q01DX009 (ip), vehicle: sodium bicarbonate) is reported as 142 % of control and the T/C (dose: 160.0 mg/kg/injection, schedule: Q01DX009 (ip), vehicle: saline) is reported as 126 % of control.

For `CN(C)c1ccc(/C=N/NC(=O)c2ccccc2NC(=O)c2ccccc2Cl)cc1`, the survivor count (dose: 30.0 mg/kg/injection, schedule: Q01DX005 (ip), vehicle: Klucel (hydroxypropylcellulose) (HPC)) was 6 of 6, the survivor count (dose: 60.0 mg/kg/injection, schedule: Q01DX005 (ip), vehicle: Klucel (hydroxypropylcellulose) (HPC)) was 6 of 6 and the survivor count (dose: 120.0 mg/kg/injection, schedule: Q01DX005 (ip), vehicle: Klucel (hydroxypropylcellulose) (HPC)) was 6 of 6. The survivor count (dose: 240.0 mg/kg/injection, schedule: Q01DX005 (ip), vehicle: Klucel (hydroxypropylcellulose) (HPC)) was 6 of 6.

`COc1ccc(C2c3cc4c(cc3OC(C)(OC)C2C)OCO4)cc1` (stereo unspecified) was tested, and the survivor count (dose: 50.0 mg/kg/injection, schedule: Q01DX005 (ip), vehicle: Klucel (hydroxypropylcellulose) (HPC)) was 6 of 6, the survivor count (dose: 100.0 mg/kg/injection, schedule: Q01DX005 (ip), vehicle: Klucel (hydroxypropylcellulose) (HPC)) was 6 of 6 and the survivor count [2] was 6 of 6.

`Cc1nn(-c2ccccc2)nc1C(=O)Nc1ccccc1C(=O)NCC1CC1` was tested, and the survivor count (dose: 60.0 mg/kg/injection, schedule: Q01DX005 (ip), vehicle: saline with Tween-80) was 6 of 6.

In the case of `Nc1ccccc1SC1CC(=O)N(c2ccccc2Cl)C1=O` (stereo unspecified), the survivor count [3] is reported as 3 of 6 and the survivor count (dose: 400.0 mg/kg/injection, schedule: Q01DX009 (ip), vehicle: saline with Tween-80) is reported as 3 of 6.

`COc1ccc(OC(=O)Nc2ccc(Cl)c(C(F)(F)F)c2)c(Cl)c1` was tested, and the survivor count (dose: 50.0 mg/kg/injection, schedule: Q01DX009 (ip), vehicle: saline + alcohol) was 6 of 6.

For `CCCC1N=C(N)N=C(N)N1c1ccc(OC)cc1` (stereo unspecified), the survivor count (dose: 100.0 mg/kg/injection, schedule: Q01DX005 (ip), vehicle: saline with Tween-80) was 1 of 5 and the survivor count (dose: 200.0 mg/kg/injection, schedule: Q01DX005 (ip), vehicle: saline with Tween-80) was 0 of 5.

For `CN(C)C1CS(=O)(=O)C1c1ccccc1` (stereo unspecified), the T/C [4] was 137 % of control.

`O=c1[nH]c(Sc2ccccn2)ccc1[N+](=O)[O-]` was tested, and the survivor count (dose: 6.25 mg/kg/injection, schedule: Q01DX009 (ip), vehicle: Klucel (hydroxypropylcellulose) (HPC)) was 6 of 6, the survivor count (dose: 12.5 mg/kg/injection, schedule: Q01DX009 (ip), vehicle: Klucel (hydroxypropylcellulose) (HPC)) was 6 of 6 and the survivor count [5] was 6 of 6. For the same compound, the survivor count [6] was 6 of 6 and the survivor count [7] was 1 of 6.

In the case of `CCC1=C[C@@H]2C[C@](C(=O)OC)(c3cc4c(cc3OC)N(C)[C@H]3[C@@](O)(C(=O)OC)[C@H](OC(C)=O)[C@]5(CC)C=CCN6CC[C@]43[C@@H]65)c3[nH]c4ccccc4c3CCN(C1)C2=O`, the T/C (dose: 9.4 mg/kg/injection, schedule: Q01DX001 (ip), vehicle: saline with Tween-80) is reported as 136 % of control, the T/C (dose: 18.8 mg/kg/injection, schedule: Q01DX001 (ip), vehicle: other) is reported as 136 % of control [2 of 3 alive] and the T/C (dose: 18.8 mg/kg/injection, schedule: Q01DX001 (ip), vehicle: saline with Tween-80) is reported as 139 % of control. The T/C (dose: 18.8 mg/kg/injection, schedule: Q01DX001 (ip), vehicle: suspension in saline) was 145 % of control, the T/C (dose: 37.5 mg/kg/injection, schedule: Q01DX001 (ip), vehicle: other) was 146 % of control [2 of 3 alive] and the T/C (dose: 37.5 mg/kg/injection, schedule: Q01DX001 (ip), vehicle: saline with Tween-80) was 139 % of control. For the same compound, the T/C (dose: 56.3 mg/kg/injection, schedule: Q01DX001 (ip), vehicle: saline with Tween-80) was 139 % of control [2 of 3 alive], the survivor count (dose: 56.33 mg/kg/injection, schedule: Q01DX001 (ip), vehicle: other) was 0 of 3 and the survivor count (dose: 75.0 mg/kg/injection, schedule: Q01DX001 (ip), vehicle: suspension in saline) was 1 of 3. For the same compound, the survivor count (dose: 84.4 mg/kg/injection, schedule: Q01DX001 (ip), vehicle: other) was 0 of 3, the survivor count (dose: 84.4 mg/kg/injection, schedule: Q01DX001 (ip), vehicle: saline with Tween-80) was 0 of 3 and the survivor count (dose: 150.0 mg/kg/injection, schedule: Q01DX001 (ip), vehicle: suspension in saline) was 0 of 3. The survivor count (dose: 300.0 mg/kg/injection, schedule: Q01DX001 (ip), vehicle: suspension in saline) was 0 of 3.

`COC1CCC(NS(=O)(=O)c2ccc(N)cc2)[N-]N1.[Ag+]` (stereo unspecified) was tested, and the survivor count (dose: 100.0 mg/kg/injection, schedule: Q01DX009 (ip), vehicle: saline) was 0 of 6 and the survivor count (dose: 200.0 mg/kg/injection, schedule: Q01DX009 (ip), vehicle: saline) was 0 of 6.

For `CC(=O)/C(=C\c1ccc([N+](=O)[O-])cc1)C(=O)CCN(C)C`, the T/C (dose: 120.0 mg/kg/injection, schedule: Q01DX005 (ip), vehicle: saline, evaluated on day 20) was 133 % of control, the T/C (dose: 120.0 mg/kg/injection, schedule: Q01DX005 (ip), vehicle: saline, evaluated on day 30) was 136 % of control and the survivor count (dose: 240.0 mg/kg/injection, schedule: Q01DX005 (ip), vehicle: saline) was 0 of 6.

With `O=C(CN1CC1)NCCCCCCCCNC(=O)CN1CC1` the survivor count (dose: 75.0 mg/kg/injection, schedule: Q04DX003 (ip), vehicle: saline with Tween-80) was 4 of 6 and the survivor count (dose: 100.0 mg/kg/injection, schedule: Q04DX003 (ip), vehicle: saline with Tween-80) was 4 of 6.

In the case of `CC(C)(C)/C(=N\NC(=O)CCl)c1ccccc1`, the survivor count [4] is reported as 5 of 6, the survivor count (dose: 100.0 mg/kg/injection, schedule: Q01DX009 (ip), vehicle: saline with Tween-80) is reported as 3 of 6 and the survivor count [3] is reported as 0 of 6.

`[Tl][S][Tl]` was tested, and the survivor count (dose: 25.0 mg/kg/injection, schedule: Q01DX009 (ip), vehicle: Klucel (hydroxypropylcellulose) (HPC)) was 6 of 6, the survivor count [5] was 6 of 6 and the survivor count [6] was 5 of 6. The survivor count [7] was 6 of 6.

Reference: PubChem BioAssay AID330 (DTP/NCI, 2004)
